{"source": "paper PMC10178769", "about": "“A Facile Synthesis and Molecular Characterization of Certain New Anti-Proliferative Indole-Based Chemical Entities” (International Journal of Molecular Sciences, 2023)", "type_in_all_cases": "cell-based", "key": {"[1]": {"system": "HCT116 colon cancer cells", "assay": "MTT assay, antiproliferative activity, HCT116", "details": "Homo sapiens, HCT-116, 48 h, read-out: Cytotoxicity IC50 HCT116", "description": "(§1) The title compounds 4a–q were subjected to MTT assay to determine their cytotoxicity, and their in vitro antiproliferative activity was examined as well. The cancer cell growth inhibitory activity of the synthesized compound was tested against three human cancer cell lines, namely, breast cancer (MCF-7), colon cancer (HCT116) and lung cancer (A549), as well as non-tumorigenic human lung cell line (WI38) to estimate the selectivity for tumor cells. Staurosporine was used as a reference drug.\n(§2) Anti-proliferative activity in compounds 4a–q were tested in three cancerous cell lines (MCF-7 breast cancer cells, A549 lung carcinoma, HCT human colon cancer cells) and in WI-38 human lung fibroblast cells. Cells were plated at a density of 1.2–1.8 × 10,000 cells/well in a volume of 100 µL complete growth medium and were incubated at 37 °C for 24 h. Cells were then treated with serially diluted tested compound and incubated at 37 °C for 48 h. Twenty microliters of 3-(4,5-dimethylthiazol-2-yl)-2,5-diphenyltetrazolium bromide (MTT) (2.5 mg/mL) dissolved in PBS were added to the cells and cells were further incubated for 4 h at 37 °C. […] The absorbance was detected at 540 nm using a Spectramax 250 microplate reader (Molecular device, San Jose, CA, USA), and viability (%) was calculated as [optical density (OD) of treated group/OD of control group] × 100."}, "[2]": {"system": "MCF-7 breast cancer cells", "assay": "MTT assay, antiproliferative activity, MCF-7", "details": "Homo sapiens, MCF7, 48 h, read-out: Cytotoxicity IC50 MCF7", "description": "as §1, §2"}, "[3]": {"assay": "MTT assay, toxicity on normal cells WI38", "details": "human", "description": "as §1, §2"}, "[4]": {"system": "A549 lung carcinoma cells", "assay": "MTT assay, antiproliferative activity, A549", "details": "Homo sapiens, A549, 48 h, read-out: Cytotoxicity IC50 A549", "description": "as §1, §2"}}}
{"smiles": "CN[C@@H]1C[C@H]2O[C@@](C)([C@@H]1OC)n1c3ccccc3c3c4c(c5c6ccccc6n2c5c31)C(=O)NC4", "note": "[Staurosporine, reference compound]", "values": [{"measurement": "IC50", "setting": "[1]", "value": "7.02 ± 0.34", "unit": "µM"}, {"measurement": "IC50", "setting": "[2]", "value": "11.1 ± 0.53", "unit": "µM"}, {"measurement": "IC50", "setting": "[3]", "value": "28.5 ± 1.62", "unit": "µM"}, {"measurement": "IC50", "setting": "[4]", "value": "8.42 ± 0.46", "unit": "µM"}]}
